Measurements reported in patent US20110189095A1, “CRKL TARGETING PEPTIDES” (The Board of Regents, of the University of Texas System, priority 2008, published 2011).

System: human DU145-derived prostate cancer xenografts
Test: In vivo phage display random peptide library selection in tumor-bearing mice
Set-up: species or system nude mice
Conditions: n = 75; after three rounds of in vivo selection, 24 hour circulation

Sequence | Frequency [%]
RGCTEAAGLVIGITTHQCGN (listed as Homo sapiens) [Peptide 24] | 4.1
DACSRFLGERVDATAAGCSR (listed as Homo sapiens) [Peptide 40] | 2.8
RECGRTVHRYPWGSPESCER (listed as Homo sapiens) [Peptide 36] | 2.8
VFCCGSYCGGVEMLASRCGH (listed as Homo sapiens) [Peptide 25] | 2.8
EGCSDIMNTAAERVTGDCSY (listed as Homo sapiens) [Peptide 28] | 2.8
DRCVLVRPEFGRGDARLCHS (listed as Homo sapiens) [Peptide 38] | 2.8
LGCMASMLREFEGATHACTQ (listed as Homo sapiens) [Peptide 37] | 10.7
IGCNHPSPLGSTVVPTYCFK (listed as Homo sapiens) [Peptide 46] | 4.1
GNCMGLQVSELFMGPYKCRQ (listed as Homo sapiens) [Peptide 12] | 2.8
GTCPRQFFHMQEFWPSDCSR (listed as Homo sapiens) [Peptide 43] | 4.1
YRCTLNSPFFWEDMTHECHA (listed as Homo sapiens) [Peptide 6] | 14.7
